Data from the supplement of paper PMC10849652.
This is one part of the list.

By UniProt entry, the sequences of proteins in these tests, tags left out. Where a name states a change or a piece, a line headed by the entry shows the natural chain unless it says otherwise.
UniProt Q6PID6, whole entry, looked up: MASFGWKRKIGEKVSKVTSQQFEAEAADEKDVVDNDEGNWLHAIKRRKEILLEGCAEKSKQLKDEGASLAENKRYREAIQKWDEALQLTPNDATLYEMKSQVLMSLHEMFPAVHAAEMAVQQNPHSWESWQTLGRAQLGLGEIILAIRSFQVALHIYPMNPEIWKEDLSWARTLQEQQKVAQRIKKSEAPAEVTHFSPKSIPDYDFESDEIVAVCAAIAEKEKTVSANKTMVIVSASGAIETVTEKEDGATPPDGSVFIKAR
UniProt Q15643: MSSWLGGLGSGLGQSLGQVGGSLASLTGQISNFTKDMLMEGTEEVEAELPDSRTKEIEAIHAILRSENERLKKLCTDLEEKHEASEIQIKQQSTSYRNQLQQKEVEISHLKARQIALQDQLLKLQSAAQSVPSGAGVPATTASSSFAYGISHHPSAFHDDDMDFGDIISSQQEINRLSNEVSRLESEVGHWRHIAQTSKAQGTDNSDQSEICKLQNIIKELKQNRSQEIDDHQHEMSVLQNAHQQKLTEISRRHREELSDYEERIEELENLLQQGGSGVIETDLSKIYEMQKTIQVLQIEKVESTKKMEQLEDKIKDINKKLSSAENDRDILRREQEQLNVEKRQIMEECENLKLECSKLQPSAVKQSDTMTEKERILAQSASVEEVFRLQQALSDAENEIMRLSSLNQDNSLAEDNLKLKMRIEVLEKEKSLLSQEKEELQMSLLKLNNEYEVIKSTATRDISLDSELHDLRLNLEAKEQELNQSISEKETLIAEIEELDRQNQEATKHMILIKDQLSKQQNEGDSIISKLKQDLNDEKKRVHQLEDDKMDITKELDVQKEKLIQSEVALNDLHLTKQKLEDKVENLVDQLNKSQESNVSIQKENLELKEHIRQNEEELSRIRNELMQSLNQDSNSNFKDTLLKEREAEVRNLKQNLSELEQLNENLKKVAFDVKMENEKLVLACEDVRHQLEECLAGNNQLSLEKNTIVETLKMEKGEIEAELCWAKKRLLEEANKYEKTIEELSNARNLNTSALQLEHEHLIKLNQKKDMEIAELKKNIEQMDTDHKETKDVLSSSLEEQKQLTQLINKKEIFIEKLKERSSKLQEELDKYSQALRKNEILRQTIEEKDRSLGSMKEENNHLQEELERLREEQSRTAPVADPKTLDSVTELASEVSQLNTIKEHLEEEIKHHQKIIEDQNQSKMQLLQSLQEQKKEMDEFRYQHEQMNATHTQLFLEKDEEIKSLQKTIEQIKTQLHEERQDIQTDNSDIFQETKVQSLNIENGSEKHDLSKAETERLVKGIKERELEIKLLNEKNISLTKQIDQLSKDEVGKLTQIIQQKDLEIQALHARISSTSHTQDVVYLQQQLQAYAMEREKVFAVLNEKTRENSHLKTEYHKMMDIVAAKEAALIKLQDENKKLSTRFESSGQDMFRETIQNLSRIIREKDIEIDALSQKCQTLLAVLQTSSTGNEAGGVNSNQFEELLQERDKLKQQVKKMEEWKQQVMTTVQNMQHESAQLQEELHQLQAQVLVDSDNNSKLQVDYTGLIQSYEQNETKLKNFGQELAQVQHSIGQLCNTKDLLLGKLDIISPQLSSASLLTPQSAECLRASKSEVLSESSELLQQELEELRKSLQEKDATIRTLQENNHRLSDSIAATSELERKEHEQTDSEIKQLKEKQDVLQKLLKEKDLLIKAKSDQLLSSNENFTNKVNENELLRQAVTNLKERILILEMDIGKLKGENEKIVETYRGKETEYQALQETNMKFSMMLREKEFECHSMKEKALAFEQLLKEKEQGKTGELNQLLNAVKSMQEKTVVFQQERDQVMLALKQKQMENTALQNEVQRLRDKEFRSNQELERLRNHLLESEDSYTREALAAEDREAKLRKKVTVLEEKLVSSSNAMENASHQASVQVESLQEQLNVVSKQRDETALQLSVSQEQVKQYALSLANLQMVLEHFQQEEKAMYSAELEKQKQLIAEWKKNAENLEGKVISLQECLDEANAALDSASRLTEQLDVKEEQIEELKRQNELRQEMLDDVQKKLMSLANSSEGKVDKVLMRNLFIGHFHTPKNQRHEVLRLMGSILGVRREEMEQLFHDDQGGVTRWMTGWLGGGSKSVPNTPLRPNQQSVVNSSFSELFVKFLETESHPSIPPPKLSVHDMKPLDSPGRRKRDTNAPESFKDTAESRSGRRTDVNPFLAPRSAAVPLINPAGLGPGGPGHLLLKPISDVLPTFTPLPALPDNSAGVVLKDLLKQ
UniProt O60637: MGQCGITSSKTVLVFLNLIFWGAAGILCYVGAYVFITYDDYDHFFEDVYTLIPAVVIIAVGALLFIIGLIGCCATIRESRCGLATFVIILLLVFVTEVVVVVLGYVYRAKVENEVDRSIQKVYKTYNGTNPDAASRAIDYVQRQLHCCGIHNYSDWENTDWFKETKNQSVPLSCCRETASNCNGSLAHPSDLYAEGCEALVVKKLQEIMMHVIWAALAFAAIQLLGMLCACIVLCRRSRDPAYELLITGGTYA
UniProt Q86TN4: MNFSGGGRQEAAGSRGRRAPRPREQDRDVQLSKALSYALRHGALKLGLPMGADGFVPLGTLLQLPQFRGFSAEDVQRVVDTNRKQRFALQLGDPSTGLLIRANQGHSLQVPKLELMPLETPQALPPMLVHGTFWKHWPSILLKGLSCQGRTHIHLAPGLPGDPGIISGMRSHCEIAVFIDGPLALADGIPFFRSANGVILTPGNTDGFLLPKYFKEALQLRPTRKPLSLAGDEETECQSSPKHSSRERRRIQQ
UniProt Q14258, whole entry, looked up: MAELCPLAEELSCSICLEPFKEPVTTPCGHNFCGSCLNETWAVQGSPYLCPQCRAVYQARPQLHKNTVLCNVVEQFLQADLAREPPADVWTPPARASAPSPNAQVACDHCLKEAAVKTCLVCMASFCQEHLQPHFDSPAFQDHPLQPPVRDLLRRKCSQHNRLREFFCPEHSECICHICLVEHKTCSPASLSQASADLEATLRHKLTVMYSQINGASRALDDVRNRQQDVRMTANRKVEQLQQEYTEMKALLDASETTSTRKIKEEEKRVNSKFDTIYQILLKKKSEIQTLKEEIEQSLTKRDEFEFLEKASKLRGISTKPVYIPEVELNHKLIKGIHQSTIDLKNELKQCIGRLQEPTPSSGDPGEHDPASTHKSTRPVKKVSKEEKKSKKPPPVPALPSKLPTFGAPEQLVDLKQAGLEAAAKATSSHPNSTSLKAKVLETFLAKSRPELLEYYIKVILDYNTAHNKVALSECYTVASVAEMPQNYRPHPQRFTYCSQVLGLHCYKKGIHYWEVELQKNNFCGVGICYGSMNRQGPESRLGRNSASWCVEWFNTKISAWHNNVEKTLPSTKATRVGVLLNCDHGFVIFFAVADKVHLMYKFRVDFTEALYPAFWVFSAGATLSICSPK
UniProt Q969E8: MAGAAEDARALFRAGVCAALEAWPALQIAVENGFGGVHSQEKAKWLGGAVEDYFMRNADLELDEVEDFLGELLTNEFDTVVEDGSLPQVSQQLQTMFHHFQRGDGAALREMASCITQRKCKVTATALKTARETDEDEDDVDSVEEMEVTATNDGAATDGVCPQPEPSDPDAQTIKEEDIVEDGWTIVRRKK
UniProt O14817: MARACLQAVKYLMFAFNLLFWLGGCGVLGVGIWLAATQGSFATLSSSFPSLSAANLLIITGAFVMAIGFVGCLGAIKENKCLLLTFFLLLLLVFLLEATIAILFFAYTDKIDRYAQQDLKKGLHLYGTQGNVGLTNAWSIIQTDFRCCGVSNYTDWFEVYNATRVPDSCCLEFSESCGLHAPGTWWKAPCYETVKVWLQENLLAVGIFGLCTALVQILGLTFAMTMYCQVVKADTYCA
UniProt Q9UPN9: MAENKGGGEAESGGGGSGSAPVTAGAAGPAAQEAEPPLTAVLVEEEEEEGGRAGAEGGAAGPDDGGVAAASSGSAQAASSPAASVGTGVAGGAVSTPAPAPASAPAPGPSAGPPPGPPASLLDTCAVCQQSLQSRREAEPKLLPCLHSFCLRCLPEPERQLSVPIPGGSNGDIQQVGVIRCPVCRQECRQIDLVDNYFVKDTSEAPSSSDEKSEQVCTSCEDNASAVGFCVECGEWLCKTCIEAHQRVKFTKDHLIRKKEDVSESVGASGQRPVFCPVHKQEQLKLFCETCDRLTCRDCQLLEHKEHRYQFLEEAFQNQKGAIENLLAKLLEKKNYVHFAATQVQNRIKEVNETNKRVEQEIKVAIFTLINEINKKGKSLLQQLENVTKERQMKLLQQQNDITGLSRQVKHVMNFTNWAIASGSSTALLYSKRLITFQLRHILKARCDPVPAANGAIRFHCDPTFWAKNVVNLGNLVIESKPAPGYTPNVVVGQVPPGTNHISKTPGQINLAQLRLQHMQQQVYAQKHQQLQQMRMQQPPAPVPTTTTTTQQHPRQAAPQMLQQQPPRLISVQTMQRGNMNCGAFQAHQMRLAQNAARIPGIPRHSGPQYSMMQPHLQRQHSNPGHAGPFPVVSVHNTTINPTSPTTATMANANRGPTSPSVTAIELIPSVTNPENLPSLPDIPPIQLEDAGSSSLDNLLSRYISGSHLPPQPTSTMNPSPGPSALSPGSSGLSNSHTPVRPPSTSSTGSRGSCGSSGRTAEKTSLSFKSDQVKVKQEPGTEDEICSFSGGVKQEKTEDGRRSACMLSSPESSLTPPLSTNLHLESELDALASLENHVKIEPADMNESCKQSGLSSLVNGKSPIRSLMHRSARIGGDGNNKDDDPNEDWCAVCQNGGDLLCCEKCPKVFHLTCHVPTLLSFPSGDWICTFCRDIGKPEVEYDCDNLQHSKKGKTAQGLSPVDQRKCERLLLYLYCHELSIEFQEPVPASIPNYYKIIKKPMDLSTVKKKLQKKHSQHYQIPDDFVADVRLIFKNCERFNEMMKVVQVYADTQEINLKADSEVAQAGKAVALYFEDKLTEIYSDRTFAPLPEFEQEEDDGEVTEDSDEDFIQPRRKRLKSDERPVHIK
UniProt Q9BUZ4: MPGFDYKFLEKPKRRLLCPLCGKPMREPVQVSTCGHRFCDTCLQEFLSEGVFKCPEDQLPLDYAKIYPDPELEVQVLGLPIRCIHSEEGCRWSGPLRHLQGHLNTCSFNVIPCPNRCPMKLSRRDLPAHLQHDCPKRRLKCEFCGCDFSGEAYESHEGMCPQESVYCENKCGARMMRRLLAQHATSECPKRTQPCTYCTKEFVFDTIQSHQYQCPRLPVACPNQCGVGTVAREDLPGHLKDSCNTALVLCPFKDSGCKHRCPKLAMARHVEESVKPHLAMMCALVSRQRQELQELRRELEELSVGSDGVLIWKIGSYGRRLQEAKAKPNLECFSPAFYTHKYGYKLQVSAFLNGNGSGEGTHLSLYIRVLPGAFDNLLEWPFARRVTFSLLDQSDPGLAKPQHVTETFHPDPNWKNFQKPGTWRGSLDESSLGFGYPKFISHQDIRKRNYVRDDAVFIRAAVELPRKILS
UniProt Q7Z392: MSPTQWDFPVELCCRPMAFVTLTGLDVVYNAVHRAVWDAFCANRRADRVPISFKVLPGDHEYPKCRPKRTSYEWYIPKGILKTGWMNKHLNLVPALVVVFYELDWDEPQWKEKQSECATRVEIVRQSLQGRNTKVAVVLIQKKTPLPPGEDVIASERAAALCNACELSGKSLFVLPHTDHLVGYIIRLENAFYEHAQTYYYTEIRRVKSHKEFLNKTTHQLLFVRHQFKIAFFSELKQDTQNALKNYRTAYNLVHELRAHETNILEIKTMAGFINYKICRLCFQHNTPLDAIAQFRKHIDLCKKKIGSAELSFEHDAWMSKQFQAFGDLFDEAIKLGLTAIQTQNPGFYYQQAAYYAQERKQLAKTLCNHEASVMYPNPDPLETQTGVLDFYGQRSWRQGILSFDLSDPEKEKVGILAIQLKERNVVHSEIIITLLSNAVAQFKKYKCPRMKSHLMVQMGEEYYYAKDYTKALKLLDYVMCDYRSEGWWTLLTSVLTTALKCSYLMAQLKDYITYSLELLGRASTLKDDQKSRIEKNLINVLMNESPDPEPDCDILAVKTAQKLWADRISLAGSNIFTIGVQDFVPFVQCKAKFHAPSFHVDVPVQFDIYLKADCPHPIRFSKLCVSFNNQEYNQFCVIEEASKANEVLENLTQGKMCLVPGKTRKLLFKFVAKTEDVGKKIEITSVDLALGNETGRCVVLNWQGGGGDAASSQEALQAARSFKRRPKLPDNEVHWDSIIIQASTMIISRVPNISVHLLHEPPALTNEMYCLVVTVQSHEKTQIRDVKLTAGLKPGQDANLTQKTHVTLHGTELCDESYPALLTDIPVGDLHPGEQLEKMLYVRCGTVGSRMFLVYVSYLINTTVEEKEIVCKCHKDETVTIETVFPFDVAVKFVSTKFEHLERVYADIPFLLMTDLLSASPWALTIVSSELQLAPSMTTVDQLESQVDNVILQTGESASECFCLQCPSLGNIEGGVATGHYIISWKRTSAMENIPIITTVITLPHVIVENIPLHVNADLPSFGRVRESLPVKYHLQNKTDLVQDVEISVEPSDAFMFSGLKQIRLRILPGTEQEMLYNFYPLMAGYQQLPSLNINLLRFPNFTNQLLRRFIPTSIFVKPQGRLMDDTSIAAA

What was measured:
Experiment in all cases: log2 fold change, soluble protein after heating vs DMSO (PISA); higher = thermal stabilisation; K562 lysate, 10 uM; active = over 0.2 and 3.5 SD of the protein, either way, in both replicates (recomputed)
[1] = compound: C#Cc1cccc(Nc2ncnc3cc(OCCOC)c(OCCOC)cc23)c1 [erlotinib]
In short: (§1)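 Thermal stability, expressed as log-two fold change relative to solvent controls, is given from duplicates. Crude K562 extract in PBS pH 7.4 with 1 mM MgCl2, at 1 mg/mL protein, was treated with 10 μM compound for 30 min and heated in aliquots for 3 min across 48°C-58°C. After pooling, adjustment to 0.5% NP-40 at 4°C and centrifugation at 21,000xg for 90 min, supernatant protein was measured by TMTpro 16plex LC-MS/MS with channel sums equalised.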

[2] = compound: C/C(=N\NC(=O)C1=CC(=CC=C1)S(=O)(=O)N2CCOCC2)/C3=C(C=CC(=C3)Cl)O
In short: as §1

[3] = compound: C1=CC(=CC=C1C2=NC3=C(N2)C=C(C=C3)C(=O)N)OC4=CC=C(C=C4)Cl
In short: as §1

[4] = compound: C1=CC2=C(C=CC(=C2)/C=C\3/C(=O)NC(=NCC4=CC=CS4)S3)N=C1
In short: as §1

[5] = compound: C1=CC2=NC=CN=C2C=C1/C=C/3\C(=O)NC(=O)S3
In short: as §1

[6] = compound: C1=CC=C(C=C1)C2=NC(=C(N2)C3=CC=NC=C3)C4=CC(=C(C=C4)Cl)O
In short: as §1

[7] = compound: C1=CC=C2C(=C1)C3=NNC4=CC=CC(=C43)C2=O
In short: as §1

[8] = compound: C1CCN(C1)C(=O)NC2=CC=CC(=C2)NC3=NC=C(C(=N3)NCCC4=CN=CN4)Br
In short: as §1

[9] = compound: C1CN(CCC1(CC2=CC=C(C=C2)Cl)N)C3=NC=NC4=C3C=CN4
In short: as §1

[10] = compound: C1COCCN1CCN2C3=CC=CC=C3N=C2NC(=O)C4=CC(=CC=C4)[N+](=O)[O-] [IRAK-1-4 Inhibitor I]
In short: as §1

Measured: log2 fold change

TTC33 (UniProt Q6PID6)
inactive: [1] 0.008 | [2] -0.031 | [3] -0.014 | [4] 0.042 | [5] 0.036 | [6] 0.03 | [7] -0.025 | [8] -0.003 | [9] 0.017 | [10] -0.032

TRIP11 (UniProt Q15643)
inactive: [1] -0.053 | [2] 0.058 | [3] -0.016 | [4] 0.023 | [5] -0.024 | [6] -0.005 | [7] -0.035 | [8] -0.081 | [9] 0.022 | [10] 0.02

TSEN2 (UniProt Q8NCE0)
inactive: [1] 0.064 | [2] 0.054 | [3] 0.069 | [4] -0.07 | [5] -0.001 | [6] -0.026 | [7] 0.004 | [8] -0.037 | [9] -0.021 | [10] 0

TTC28 (UniProt Q96AY4)
inactive: [1] -0.097 | [2] 0.157 | [3] -0.006 | [4] -0.104 | [5] 0.154 | [7] -0.073

2 entries drawn at random from the list so far, as already listed:
TTC28 (UniProt Q96AY4)
inactive: [1] -0.097 | [2] 0.157 | [3] -0.006 | [4] -0.104 | [5] 0.154 | [7] -0.073

TSEN2 (UniProt Q8NCE0)
inactive: [1] 0.064 | [2] 0.054 | [3] 0.069 | [4] -0.07 | [5] -0.001 | [6] -0.026 | [7] 0.004 | [8] -0.037 | [9] -0.021 | [10] 0

Later entries

TRAPPC2 isoform 3 (UniProt P0DI81)
inactive: [1] 0.094 | [2] 0.063 | [3] 0.066 | [4] 0.042 | [5] 0 | [6] 0.022 | [7] -0.107 | [8] -0.026 | [9] -0.025 | [10] -0.022

TSPAN3 (UniProt O60637)
inactive: [1] 0.002 | [2] 0.012 | [3] 0.058 | [4] -0.073 | [6] 0 | [7] -0.135 | [8] 0.006 | [9] 0.032 | [10] 0.091

TRMT2A (UniProt Q8IZ69)
inactive: [1] -0.042 | [2] -0.015 | [3] -0.007 | [4] 0.012 | [5] -0.012 | [6] -0.012 | [7] -0.004 | [8] -0.005 | [9] 0.002 | [10] -0.007

TRPT1 isoform 4 (UniProt Q86TN4)
inactive: [1] 0.101 | [2] -0.127 | [3] -0.055 | [4] 0.066 | [5] -0.033 | [6] 0.143 | [7] 0.038 | [10] -0.126

TSTA3 (UniProt Q13630)
inactive: [1] 0.026 | [2] 0.04 | [3] 0.003 | [4] -0.044 | [5] -0.023 | [6] 0.013 | [7] 0.041 | [8] -0.033 | [9] 0.013 | [10] -0.012

TRIM25 (UniProt Q14258)
inactive: [1] -0.01 | [2] -0.024 | [3] 0.028 | [4] -0.004 | [5] -0.028 | [6] 0.032 | [7] 0.008 | [8] 0.064 | [9] 0.021 | [10] -0.009

TRIO (UniProt O75962)
inactive: [1] 0.061 | [2] -0.049 | [3] 0.075 | [4] -0.033 | [5] -0.043 | [7] 0.007 | [8] 0.059 | [9] 0.05

TSR2 (UniProt Q969E8)
inactive: [1] 0.016 | [2] 0.001 | [3] -0.031 | [4] 0.023 | [5] 0.068 | [6] -0.011 | [7] -0.009 | [8] 0 | [9] 0.055 | [10] -0.03

TTC39B (UniProt Q5VTQ0)
inactive: [1] -0.016 | [2] 0.064 | [3] -0.048 | [4] -0.042 | [5] 0.208 | [6] -0.168 | [7] 0.025 | [10] 0.002

TRPV2 (UniProt Q9Y5S1)
inactive: [1] -0.005 | [2] -0.018 | [3] 0.019 | [4] 0.011 | [5] 0.016 | [6] 0.011 | [7] -0.009 | [8] 0.011 | [9] 0 | [10] -0.022

TSPAN4 (UniProt O14817)
inactive: [1] 0.062 | [2] -0.098 | [3] -0.003 | [4] -0.048 | [6] -0.391 | [7] -0.137 | [8] 0.039 | [9] -0.022 | [10] 0.196

TRIM33 isoform 2 (UniProt Q9UPN9)
inactive: [1] 0.004 | [2] -0.016 | [3] 0.014 | [4] 0.004 | [5] -0.002 | [6] 0.003 | [7] 0.008 | [8] -0.03 | [9] 0.006 | [10] -0.02

TRIP12 isoform 2 (UniProt Q14669)
inactive: [1] 0.034 | [2] 0.013 | [3] -0.014 | [4] 0.004 | [5] 0.024 | [6] -0.027 | [7] -0.02 | [8] 0.019 | [9] -0.021 | [10] -0.032

TRMT1 (UniProt Q9NXH9)
inactive: [1] -0.01 | [2] -0.011 | [3] 0.005 | [4] -0.006 | [5] 0.01 | [6] 0 | [7] 0.015 | [8] -0.023 | [9] -0.009 | [10] 0.003

TRAF4 (UniProt Q9BUZ4)
inactive: [1] -0.042 | [2] 0.153 | [3] -0.049 | [4] -0.079 | [5] -0.084 | [6] 0 | [7] 0.068 | [8] 0.196 | [9] -0.245 | [10] -0.029

TRAPPC11 (UniProt Q7Z392)
inactive: [1] 0.034 | [2] -0.012 | [3] 0.017 | [4] 0.03 | [5] -0.031 | [6] -0.021 | [7] -0.017 | [8] -0.05 | [9] -0.039 | [10] 0.025

TRAF7 (UniProt Q6Q0C0)
inactive: [2] 0.006 | [4] -0.042 | [6] -0.026 | [7] -0.151 | [8] -0.05 | [9] 0.116 | [10] -0.047
